Data as given in PubChem BioAssay AID1508588 (Peter MacCallum Cancer Centre, 2020)
Here is a random part of about 18,000 reagents. Of all reagents, 790 (4.4%) were called active. 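Calls rest on a combination of fold-change classes in drug and vehicle arms, not all shown here.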 Entries without a mark were called inactive. No sequences are given here.

Test: 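Which gene losses make BRAF-mutant melanoma cells more responsive to vemurafenib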 (primary screen)
System: human WM266.4 melanoma cells (BRAF V600 mutant)
Reagents: siRNA pool against human genes, 40 nM
Duration: 96 h from transfection to read-out
Conditions: vemurafenib 300 nM (about IC25), added 48 h after transfection, for 48 h; comparison arm got DMSO vehicle only
Read-out: 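Cell gain (DAPI nuclei at end minus before drug, mean of two replicates) and medium lactate by absorbance per cell, both as ratio to non-targeting siRNA, also grouped into fold-change classes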
Scale: cell gain with vemurafenib: higher = more cell gain than with non-targeting siRNA; lactate per cell with vemurafenib: higher = more lactate made per cell
Hit rule: 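a knock-down counts as enhancing when its fold-change classes with vehicle and with vemurafenib, taken together, show a stronger drug effect on cell gain or lactate per cell; exact class pairs not stated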
Meaning of the calls: active = enhances vemurafenib effect; inactive = no enhancement seen

| gene | cell gain with vemurafenib | lactate per cell with vemurafenib |
| --- | --- | --- |
| SLC45A3 | 0.48 | 1.23 |
| TSEN2 | 0.26 | 2.01 |
| CABP1 | 1.22 | 0.92 |
| INTS6 | 0.17 | 2.04 |
| NTRK3 | 0.9 | 1.1 |
| RGPD1 | 0.92 | 0.8 |
| LRRC25 | 0.46 | 1.27 |
| SPRYD7 | 0.52 | 1.38 |
| WFIKKN2 | 0.61 | 0.86 |
| YTHDC1 | 0.4 | 2.1 |
| CTNNA3 | 0.96 | 0.99 |
| PDIA4 | 0.51 | 1.57 |
| FBXO45 | 0.72 | 1 |
| STMN3 | 0.41 | 1.22 |
| RPL15 | 0.19 | 1.4 |
| IZUMO4 | 0.63 | 0.64 |
| SHISAL2A | 0.26 | 1.52 |
| GSTO2 | 0.36 | 0.5 |
| SMYD4 | 0.58 | 0.51 |
| NPLOC4 | 1.02 | 0.46 |
| BBOX1 | 0.58 | 0.98 |
| KCNIP3 | 0.6 | 1.52 |
| COX8C | 0.73 | 0.88 |
| MSH6 | 0.69 | 0.97 |
| GLYR1 | 1.1 (active) | 0.44 |
| DNAH3 | 0.21 | 2.21 |
| ABCC9 | 0.61 | 0.62 |
| GNAI3 | 0.54 | 0.74 |
| WDR89 | 0.74 | 0.99 |
| TRIB3 | 0.16 (active) | 0.28 |
| MZF1 | 0.81 | 0.66 |
| TEX2 | 0.74 | 1.29 |
| DYRK2 | 0.53 | 1.19 |
| PBK | 0.93 | 0.82 |
| EXOC2 | 1.11 | 0.8 |

Next part; the last 7 above are carried over.
| gene | cell gain with vemurafenib | lactate per cell with vemurafenib |
| --- | --- | --- |
| WDR89 | 0.74 | 0.99 |
| TRIB3 | 0.16 (active) | 0.28 |
| MZF1 | 0.81 | 0.66 |
| TEX2 | 0.74 | 1.29 |
| DYRK2 | 0.53 | 1.19 |
| PBK | 0.93 | 0.82 |
| EXOC2 | 1.11 | 0.8 |
| HADH | 0.74 | 1.02 |
| OR8B4 | 0.68 | 0.9 |
| CBFB | 0.93 | 0.93 |
| ZNF718 | 0.84 | 0.87 |
| STARD4 | 0.14 | 1.84 |
| TNN | 0.59 | 0.83 |
| KLHDC4 | 1.26 | 0.61 |
| GLB1 | 0.59 | 0.9 |
| C11orf58 | 0.96 | 0.93 |
| SNRPN | 0.82 | 0.64 |
| PPP2CB | 0.8 | 0.55 |
| URB2 | 0.6 | 0.97 |
| CIMAP1D | 0.52 | 0.94 |
| SUGT1P4-STRA6LP-CCDC180 | 0.35 | 1.72 |
| FBXL12 | 0.29 | 1.12 |
| SLC36A3 | 0.58 | 1.51 |
| KATNIP | 0.53 | 0.54 |
| OXCT1 | 1.15 | 0.74 |
| EHD3 | 0.68 | 0.96 |
| FGFRL1 | 0.57 | 0.89 |
| SOWAHA | 0.79 | 0.83 |
| MTX1 | 0.2 | 2.6 |
| S100A4 | 0.04 | 1.48 |
| TSKU | 0.84 | 0.73 |
| TYW3 | 0.59 | 0.42 |
| OPRK1 | 0.26 (active) | 0.44 |
| PKDCC | 0.75 | 0.82 |
| TMEM254 | 0.34 | 1.62 |
| IL4 | 0.78 | 1.22 |
| DRAM2 | 0.09 | 3.09 |
| SPRR4 | 0.48 | 0.66 |
| CASTOR3P | 0.7 | 0.91 |
| GLE1 | 0.95 (active) | 0.39 |
| MRPL20 | 0.76 | 2.08 |
| LSM5 | 0.29 | 1.61 |
| CRYBG2 | 0.26 | 0.72 |
| BCL6 | 0.91 | 0.45 |
| HIPK1 | 0.59 | 2.21 |
| TPRG1L | 0.34 | 0.92 |
| ZBTB17 | 0.92 | 0.47 |
| DMBT1 | 0.56 | 0.76 |
| TMOD1 | 0.15 | 0.28 |
| TET2 | 1.3 | 0.62 |
| CRYGN | 0.85 | 0.88 |
| DDIT3 | -0.13 | 1.29 |
| HEY1 | 0.36 | 0.88 |
| SPANXN4 | 0.29 | 0.37 |
| RMDN2 | 0.6 | 1.51 |
| NCF2 | 0.81 | 0.96 |
